Source: US20240148822A1, “ASSOCIATIONS OF FOSFOMYCIN AND COLISTIN FOR USE AGAINST BIOFILM-ASSOCIATED BACTERIAL INFECTIONS” (priority 2021, published 2024)
Some of these results come from one statement about several compounds together.

Tested on: all tested strains (preformed biofilms)
Assay: MBEC, summary over all tested strains
Format: cell-based
Procedure: Fosfomycin and colistin Minimum Biofilm Eradication Concentrations (MBECs) were determined as previously described (Macia et al, mentioned above), with MBEC being defined as the lowest concentration of antibiotic that prevented visible bacterial growth in the recovery medium.

Compound	MBEC50 (fosfomycin)	MBEC90 (fosfomycin)	MBEC90 (colistin)
C[C@@H]1O[C@@H]1P(=O)(O)O [Fosfomycin, fosfomycin]	> 1024 μs/ml	> 1024 μs/ml	–
colistin	–	–	> 1024 μs/ml
